# Reference: PubChem BioAssay AID493014 (National Center for Advancing Translational Sciences (NCATS), 2011)
# Some of the results follow. The main result of the screen is listed elsewhere. These columns were measured beside it and carry no call. Most of these compounds were active or inconclusive in the main read-out, so they are no random draw. The note in brackets gives the kind of curve behind each potency; many fits are weak.
# Assay: qHTS Assay to Find Inhibitors of Chronic Active B-Cell Receptor Signaling
# Conditions: ABC-DLBCL IkBa-CBG/CBR reporter, luminescence ratio (green luciferase fused to IkBa over red control in TMD8 lymphoma cells), 4 h
# Summary of the method: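 Concentration-response series (up to 46 uM) were applied to TMD8 dual-reporter cells for 4 h at 37C with doxycycline. Green/red ratio, after filter-overlap correction, defined %Activity; red signal alone was normalised to basal cells and zero luminescence.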
# [1] = measured here: CBR red luminescence, cell number
# [2] = measured here: IkBa-CBG green luminescence
SMILES,AC50 [1],AC50 [2]
CCC(C)(C)NC(=O)CN(C(=O)CCC(=O)Nc1cc(C)ccn1)c1ccc2c(c1)OCO2,"3.26 µM [falling, partial curve, poor fit]",–
COc1cc(/C=C2\SC(=N)N(c3ccc(F)cc3)C2=O)ccc1O,"7.94 µM [falling, partial curve, poor fit]",–
Cc1ccc(Nc2nc(N)nc(CN3CCN(Cc4ccc5c(c4)OCO5)CC3)n2)c(C)c1,"35.5 µM [falling, single point]",–
COCCc1ncc(CN2CCCC(C(=O)Nc3cccc(-c4cccc(C)c4)c3)C2)cn1 (stereo not drawn),"12.6 µM [falling, single point]",–
Fc1cccc(NC(=S)NC2CCCCCCC2)c1,"1.58 µM [rising, partial curve, poor fit]",–
N=c1c2c(ncn1Cc1ccco1)Oc1ccc3ccccc3c1C2c1ccccc1 (stereo not drawn),"3.26 µM [falling, full curve]",–
O=C(Nc1cccc2ccccc12)OCc1cncs1,"3.55 µM [falling, partial curve, poor fit]",–
COc1ccc(CNc2nc3nc(C)c(Cl)c(C)n3n2)cc1,"7.08 µM [falling, partial curve]",–
OC(COCC(F)(F)C(F)(F)C(F)(F)C(F)F)Cn1c2ccccc2c2ccccc21 (stereo not drawn),"18.4 µM [falling, partial curve, poor fit]","8.2 µM [rising, partial curve]"
Cn1cnnc1SCc1ccccc1,"29.1 µM [rising, single point]",–
O=C(N/N=C/C1CC2C=CC1C2)c1ccccc1O (stereo not drawn),"1.41 µM [falling, full curve]",–
Cc1ccc(C(=O)N/N=C\c2cccc(OC(=O)c3cccc(F)c3)c2)cn1,"3.16 µM [falling, full curve]",–
O=C1C=CCC(/C=C/c2ccccc2)O1 (stereo not drawn),"5.17 µM [falling, partial curve]",–
CC1CN(c2nc3c(c(=O)n(Cc4ccc(Cl)c(Cl)c4)c(=O)n3C)n2C)CC(C)O1 (stereo not drawn),"10.3 µM [rising, partial curve, poor fit]",–
CC1CCCN(CCCOc2ccc(Br)cc2Cl)C1 (stereo not drawn),"35.5 µM [falling, single point]",–
CC(C)(C)c1ccc(C(=O)N2CCC(C(=O)c3ccccc3)CC2)cc1,"35.5 µM [falling, single point]",–
Cn1c(N=Nc2ccccc2)nc2ccccc21,"13 µM [falling, partial curve]","18.4 µM [falling, single point]"
Cc1ccc(C(=O)Nc2nc3ccccc3s2)s1,"0.562 µM [falling, full curve, poor fit]",–
COc1ccc([N+](=O)[O-])cc1C(=O)Nc1ccc(Cc2ccncc2)cc1,"15.8 µM [rising, partial curve, poor fit]",–
CNc1ccccc1C(=O)OCC(=O)N1CCN(c2ccc(OC)cc2)CC1,"28.2 µM [falling, single point]",–
CC(=O)c1c(C)nc(-c2ccccc2)nc1NC(=O)Cc1ccccc1,"0.398 µM [rising, full curve, poor fit]",–

# Quoted from above, eight compounds:
SMILES,AC50 [1],AC50 [2]
CCC(C)(C)NC(=O)CN(C(=O)CCC(=O)Nc1cc(C)ccn1)c1ccc2c(c1)OCO2,"3.26 µM [falling, partial curve, poor fit]",–
COc1cc(/C=C2\SC(=N)N(c3ccc(F)cc3)C2=O)ccc1O,"7.94 µM [falling, partial curve, poor fit]",–
Cc1ccc(Nc2nc(N)nc(CN3CCN(Cc4ccc5c(c4)OCO5)CC3)n2)c(C)c1,"35.5 µM [falling, single point]",–
COCCc1ncc(CN2CCCC(C(=O)Nc3cccc(-c4cccc(C)c4)c3)C2)cn1 (stereo not drawn),"12.6 µM [falling, single point]",–
Fc1cccc(NC(=S)NC2CCCCCCC2)c1,"1.58 µM [rising, partial curve, poor fit]",–
N=c1c2c(ncn1Cc1ccco1)Oc1ccc3ccccc3c1C2c1ccccc1 (stereo not drawn),"3.26 µM [falling, full curve]",–
O=C(Nc1cccc2ccccc12)OCc1cncs1,"3.55 µM [falling, partial curve, poor fit]",–
COc1ccc(CNc2nc3nc(C)c(Cl)c(C)n3n2)cc1,"7.08 µM [falling, partial curve]",–

# Next records follow:

SMILES,AC50 [1],AC50 [2]
NC(=O)c1ccc(SCC(=O)OCC(=O)NC2CCCCCCC2)c([N+](=O)[O-])c1,"20.6 µM [falling, single point]",–
OCCNc1nc(Nc2ccc(O)cc2)nc2ccccc12,"17.8 µM [falling, partial curve, poor fit]",–
CN(C)c1ccnc2sc(C(=O)c3ccccc3)c(N)c12,"16.4 µM [falling, partial curve]",–
COc1ccc(NC(=S)Nc2ccc3snnc3c2)cc1,"4.47 µM [rising, partial curve, poor fit]",–
O=C(NCc1ccc(F)cc1F)c1cc(COc2c(F)cccc2F)on1,"31.6 µM [rising, single point]",–
O=C(N/N=C\c1ccc(CN(Cc2ccc(Cl)cc2)S(=O)(=O)c2ccccc2)o1)C(=O)Nc1ccc(F)cc1,"1.46 µM [falling, full curve]",–
COc1ccc(OC)c(-c2nnc(NC(=O)C(C)Sc3nncn3C)s2)c1 (stereo not drawn),"16.4 µM [falling, single point]",–
Cc1cc(C(=O)N/N=C\C(Br)=C\c2ccccc2)c(C)o1,"15.8 µM [falling, single point]",–
O=C(Nc1cc(N2CCOCC2)ncn1)c1ccc(F)cc1,"35.5 µM [falling, single point]",–
O=S(=O)(Nc1nc2ccc(Cl)cc2s1)c1cccs1,"5.62 µM [rising, single point]",–
COc1ccc(CCNC(=O)c2cc3c(=O)n4ccccc4nc3n(C3CCCCC3)c2=N)cc1,"8.91 µM [rising, partial curve, poor fit]",–
O=C(Nc1cccc(NC(=O)c2cccs2)c1)c1cccnc1,"22.4 µM [falling, single point]",–
Cc1cc(NC(=O)/C=C/c2ccc(F)cc2)n(-c2nc3ccccc3[nH]2)n1,"4.11 µM [falling, partial curve, poor fit]",–
COc1cccc(NC(=O)c2ccc(NCCCN3CC(C)CC(C)C3)c([N+](=O)[O-])c2)c1 (stereo not drawn),"11.2 µM [falling, partial curve, poor fit]",–
O=C(CSc1nc2ccc([N+](=O)[O-])cc2[nH]1)NC1CCCCCC1,"1.84 µM [falling, partial curve, poor fit]",–
COc1ccc(C(=O)NCCCn2nc(C)cc2C)cc1S(=O)(=O)N1CCOCC1,"0.58 µM [falling, full curve]",–
CSc1ccc(/C=N/S(=O)(=O)c2ccccc2)cc1,"2.24 µM [rising, partial curve, poor fit]",–
CC(=O)Nc1c(C(=O)N2CCOCC2)cnn1-c1ccc(C)c(C)c1,"15.8 µM [falling, single point]",–
Oc1c(C=NCc2ccncc2)sc2ccccc12,"16.4 µM [falling, partial curve, poor fit]",–
NC(=NC(=O)c1ccc(OCC(F)(F)F)nc1)c1ccccc1,"10 µM [rising, partial curve]",–
